The list shows a part of the results, in another mix than the full data. Calls are pooled over several reports, among them a noisy single-well screen. This is one part of the list.
The molecules below were run against T1, OR6V1 (Homo sapiens) (UniProt Q8N148). Details: stereoisomer not certain.
T1 sequence (whole entry): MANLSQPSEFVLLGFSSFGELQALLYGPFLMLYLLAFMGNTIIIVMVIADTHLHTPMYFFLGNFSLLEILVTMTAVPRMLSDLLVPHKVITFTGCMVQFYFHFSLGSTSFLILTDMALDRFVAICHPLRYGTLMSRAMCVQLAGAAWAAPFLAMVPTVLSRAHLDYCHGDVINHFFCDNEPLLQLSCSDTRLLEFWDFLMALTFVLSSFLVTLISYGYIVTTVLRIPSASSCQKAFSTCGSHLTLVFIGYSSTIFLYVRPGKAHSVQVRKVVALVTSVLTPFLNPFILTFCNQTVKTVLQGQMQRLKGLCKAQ
In short: (§1)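 Each entry records the cell line, G-protein, co-transfected protein and tags used. Methods varied with the source, often transient luciferase assays in mammalian cell lines. A receptor–molecule pair is called responsive (active) if the original authors judged its signal statistically different from baseline and non-responsive (inactive) otherwise.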

Row | SMILES | odorant receptor agonist call
1 | COc1ccccc1O | inactive
2 | CC(=O)OC(C)(C)C1CC=C(C)CC1 (stereo not drawn) | inactive
3 | O=C1CCCCCCCCCCCC(=O)OCCO1 | inactive
4 | CC(C)CCC(=O)O | inactive
5 | CC1COCc2cc3c(cc21)C(C)(C)C(C)C3(C)C (stereo not drawn) | active
6 | CCC1(O)C2(C)CCC(C2)C1(C)C (stereo not drawn) | inactive
7 | C=CC(C)(O)CCC=C(C)C (stereo not drawn) | inactive
8 | CC(C)C(=O)O | inactive
9 | CC=Cc1ccc(O)c(OC)c1 | active
10 | COC(=O)c1ccccc1O | inactive
11 | CCCCO | inactive
12 | CCCC(=O)O | inactive
13 | CCC=CCCO | inactive
14 | CC12CCC(CC1)C(C)(C)O2 | inactive
15 | CC(C)C=O | inactive
16 | C=CCc1ccc(OC(C)=O)c(OC)c1 | active
17 | CCCCCC(=O)O | inactive
18 | CC(C)(C)c1ccc(CCC=O)cc1 | inactive
19 | CC(=O)C(C)=O | inactive
20 | CC(=O)OC1CC2CCC1(C)C2(C)C (stereo not drawn) | inactive
21 | CC12CCC(C1)C(C)(C)C2=O (stereo not drawn) | inactive

The molecules below were run against T2, OR6X1 (Homo sapiens) (UniProt Q8NH79). Details: stereoisomer not certain.
T2 sequence (whole entry): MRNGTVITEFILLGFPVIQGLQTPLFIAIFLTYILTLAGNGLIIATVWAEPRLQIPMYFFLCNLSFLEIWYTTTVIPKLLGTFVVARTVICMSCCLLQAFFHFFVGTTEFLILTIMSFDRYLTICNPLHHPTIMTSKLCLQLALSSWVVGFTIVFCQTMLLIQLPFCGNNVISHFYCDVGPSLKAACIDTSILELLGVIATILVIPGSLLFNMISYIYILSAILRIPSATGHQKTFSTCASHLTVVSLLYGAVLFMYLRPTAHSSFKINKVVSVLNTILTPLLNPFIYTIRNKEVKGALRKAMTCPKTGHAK
In short: as §1

Row | SMILES | odorant receptor agonist call
22 | COc1ccccc1O | inactive
23 | CC(=O)OC(C)(C)C1CC=C(C)CC1 (stereo not drawn) | inactive
24 | O=C1CCCCCCCCCCCC(=O)OCCO1 | inactive
25 | CC(C)CCC(=O)O | inactive
26 | CC1COCc2cc3c(cc21)C(C)(C)C(C)C3(C)C (stereo not drawn) | inactive
27 | CCC1(O)C2(C)CCC(C2)C1(C)C (stereo not drawn) | inactive
28 | C=CC(C)(O)CCC=C(C)C (stereo not drawn) | inactive
29 | CC(C)C(=O)O | inactive
30 | CC=Cc1ccc(O)c(OC)c1 | active
31 | COC(=O)c1ccccc1O | inactive
32 | CCCCO | inactive
33 | CCCC(=O)O | inactive
34 | CCC=CCCO | inactive
35 | CC12CCC(CC1)C(C)(C)O2 | inactive
36 | CC(C)C=O | inactive
37 | C=CCc1ccc(OC(C)=O)c(OC)c1 | active
38 | CCCCCC(=O)O | inactive
39 | CC(C)(C)c1ccc(CCC=O)cc1 | inactive
40 | CC(=O)C(C)=O | inactive
41 | CC(=O)OC1CC2CCC1(C)C2(C)C (stereo not drawn) | inactive
42 | CC12CCC(C1)C(C)(C)C2=O (stereo not drawn) | inactive

The molecules below were run on T3, OR6Y1. Details: stereoisomer not certain.
T3 sequence (whole entry): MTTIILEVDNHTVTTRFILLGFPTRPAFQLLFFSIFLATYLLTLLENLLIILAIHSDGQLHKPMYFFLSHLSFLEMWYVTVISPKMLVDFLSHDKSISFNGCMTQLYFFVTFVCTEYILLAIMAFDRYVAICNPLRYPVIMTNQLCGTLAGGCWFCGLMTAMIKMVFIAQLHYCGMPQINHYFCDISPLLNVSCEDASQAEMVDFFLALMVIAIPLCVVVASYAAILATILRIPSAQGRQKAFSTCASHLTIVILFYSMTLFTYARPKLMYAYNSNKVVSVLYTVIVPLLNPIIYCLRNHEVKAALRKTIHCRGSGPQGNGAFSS
In short: as §1

Row | SMILES | odorant receptor agonist call
43 | COc1ccccc1O | inactive
44 | CC(=O)OC(C)(C)C1CC=C(C)CC1 (stereo not drawn) | inactive
45 | O=C1CCCCCCCCCCCC(=O)OCCO1 | inactive
46 | CC(=O)c1ccccc1 | inactive
47 | CC(C)CCC(=O)O | inactive
48 | COC(=O)c1ccccc1 | active
49 | CC1COCc2cc3c(cc21)C(C)(C)C(C)C3(C)C (stereo not drawn) | active
50 | CCC1(O)C2(C)CCC(C2)C1(C)C (stereo not drawn) | inactive
51 | C=CC(C)(O)CCC=C(C)C (stereo not drawn) | inactive
52 | CC(C)C(=O)O | inactive
53 | CC=Cc1ccc(O)c(OC)c1 | inactive
54 | COC(=O)c1ccccc1O | inactive
55 | O=C1CCCCC1 | inactive
56 | CCCCO | inactive
57 | CCCC(=O)O | inactive
58 | CCC=CCCO | inactive
59 | CCCCCC(C)=O | inactive
60 | CC12CCC(CC1)C(C)(C)O2 | inactive
61 | CC(C)C=O | inactive
62 | C=CCc1ccc(OC(C)=O)c(OC)c1 | inactive
63 | CCCCCC(=O)O | inactive
64 | CC(C)(C)c1ccc(CCC=O)cc1 | inactive
65 | CC(=O)C(C)=O | inactive
66 | CC(=O)OC1CC2CCC1(C)C2(C)C (stereo not drawn) | inactive
67 | CC12CCC(C1)C(C)(C)C2=O (stereo not drawn) | inactive
68 | CC1=NC(C)SC1C (stereo not drawn) | inactive

Source: the M2OR odorant receptor database
